The text below walks through data of publication PMC2932712, “Formation of Mobile Chromatin-Associated Nuclear Foci Containing HIV-1 Vpr and VPRBP Is Critical for the Induction of G2 Cell Cycle Arrest” (PLoS Pathogens, 2010).

By UniProt entry, the sequences of proteins in these tests, tags left out. Residues count along the entry.
UniProt P05928, residues 1-78: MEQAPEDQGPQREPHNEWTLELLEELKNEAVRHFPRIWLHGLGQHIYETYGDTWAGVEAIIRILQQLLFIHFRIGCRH

These are yes or no findings as the source states them, for the method shown. In cells and extracts the contact can be indirect. Some entries that bind do so weakly or less than the wild type.

Assay [1] addresses HA-tagged HIV-1 Vpr (1-78) (HIV-1) (UniProt P05928). As to the kind of experiment: co-IP.
For assay [2] the target is unchanged. Briefly: condition: only in the chromatin-bound fraction released by micrococcal nuclease; co-IP; anti-HA agarose beads, 2 h at 4C, on the chromatin-bound fraction released by micrococcal nuclease from Triton-insoluble material of transfected HeLa cells; with or without 25 ug/ml ethidium bromide.

Consider “VPRBP (Vpr-binding protein), endogenous in HeLa (from UniProt Q9Y4B6-1 1-1507)”, for which the binding result in assay [1] is reported as “binds”; in assay [2], “no binding”.
